Data: US7608416B2, “Targeting mPGES-1 as a treatment for inflammation which avoids cardiovascular risk” (The Trustees of the University of Pennsylvania, priority 2004, dated 2009)
For at least one compound, name, drawing or mass did not settle the structure.

Experiments:
[1] = tested on: TxA2 biosynthesis (urinary 2,3-dinor TxB2, TxM); assay: Urinary TxM (2,3-dinor TxB2) excretion, 24 h urine, HPLC/tandem MS; type: in vivo, mouse; details: celecoxib 100 mg/kg/day for 30 days, mixed C57BL/6×129/sv background
[2] = tested on: PGI2 biosynthesis (urinary 2,3-dinor 6-keto PGF1α, PGIM); assay: Urinary PGIM (2,3-dinor 6-keto PGF1α) excretion, 24 h urine, GC/MS; type: in vivo, mouse; details: celecoxib 100 mg/kg/day for 30 days, mixed C57BL/6×129/sv background
Experimental: Eicosanoid analyses: Urinary TxM and PGIM were measured in twenty four hour urines collected in metabolic cages. After extraction and purification by thin layer chromatography, they were analyzed by a stable isotope dilution reverse phase (C18) HPLC/tandem mass spectrometry assay and gas chromatography/mass spectrometry, respectively, as previously described (Egan et al., 2005, Circulation 111: 334-242).
The relative contribution of the PGHS enzymes, PGHS-1 and PGHS-2, to the biosynthesis of PGI2 and TxA2 was assessed by measuring urinary 2,3-dinor 6-keto PGF1α (PGIM) and 2,3-dinor TxB2 (TxM) respectively. […] PGIM and TxM was also assessed in PGHS-1 knockdown (KD) mice. […] Traditional NSAIDS and NSAIDs selective for PGHS-2 inhibit COX activity, not POX activity. Tyr385 in PGHS (ovine PGH-1 numbering) is critical for cyclooxygenase (COX) catalysis, but is uninvolved in peroxidase (POX) activity. PGIM and TxM was also assessed in PGHS-2^Y385F mice, in which the cyclooxygenase, but not the peroxidase (POX) function, of PGHS-2 is inactivated, thereby mimicking the effect of a selective PGHS-2 inhibitor (Yu et al., 2005a, J. Clin. Invest. (Submitted manuscript)).

Cc1ccc(-c2cc(C(F)(F)F)nn2-c2ccc(S(N)(=O)=O)cc2)cc1 [celecoxib]
Urinary excretion of 2,3-dinor TxB2 (TxM) decreased significantly from values in WT mice [1]: but not | Urinary 2,3-dinor 6-keto PGF1α (PGIM) [2]: depressed significantly
